Experimental data as given in article PMC4442312 (eLife, 2015).
No constants are given. Whether binding was seen depends on the method and setting. In cells and extracts the contact can be indirect. Some binding calls cover weakened binding; strength is not graded here. For part of these data: Sequences can lack the tags named with a protein.

The chains behind the UniProt entries cited, without tags or fusion partners.
UniProt Q96KQ7: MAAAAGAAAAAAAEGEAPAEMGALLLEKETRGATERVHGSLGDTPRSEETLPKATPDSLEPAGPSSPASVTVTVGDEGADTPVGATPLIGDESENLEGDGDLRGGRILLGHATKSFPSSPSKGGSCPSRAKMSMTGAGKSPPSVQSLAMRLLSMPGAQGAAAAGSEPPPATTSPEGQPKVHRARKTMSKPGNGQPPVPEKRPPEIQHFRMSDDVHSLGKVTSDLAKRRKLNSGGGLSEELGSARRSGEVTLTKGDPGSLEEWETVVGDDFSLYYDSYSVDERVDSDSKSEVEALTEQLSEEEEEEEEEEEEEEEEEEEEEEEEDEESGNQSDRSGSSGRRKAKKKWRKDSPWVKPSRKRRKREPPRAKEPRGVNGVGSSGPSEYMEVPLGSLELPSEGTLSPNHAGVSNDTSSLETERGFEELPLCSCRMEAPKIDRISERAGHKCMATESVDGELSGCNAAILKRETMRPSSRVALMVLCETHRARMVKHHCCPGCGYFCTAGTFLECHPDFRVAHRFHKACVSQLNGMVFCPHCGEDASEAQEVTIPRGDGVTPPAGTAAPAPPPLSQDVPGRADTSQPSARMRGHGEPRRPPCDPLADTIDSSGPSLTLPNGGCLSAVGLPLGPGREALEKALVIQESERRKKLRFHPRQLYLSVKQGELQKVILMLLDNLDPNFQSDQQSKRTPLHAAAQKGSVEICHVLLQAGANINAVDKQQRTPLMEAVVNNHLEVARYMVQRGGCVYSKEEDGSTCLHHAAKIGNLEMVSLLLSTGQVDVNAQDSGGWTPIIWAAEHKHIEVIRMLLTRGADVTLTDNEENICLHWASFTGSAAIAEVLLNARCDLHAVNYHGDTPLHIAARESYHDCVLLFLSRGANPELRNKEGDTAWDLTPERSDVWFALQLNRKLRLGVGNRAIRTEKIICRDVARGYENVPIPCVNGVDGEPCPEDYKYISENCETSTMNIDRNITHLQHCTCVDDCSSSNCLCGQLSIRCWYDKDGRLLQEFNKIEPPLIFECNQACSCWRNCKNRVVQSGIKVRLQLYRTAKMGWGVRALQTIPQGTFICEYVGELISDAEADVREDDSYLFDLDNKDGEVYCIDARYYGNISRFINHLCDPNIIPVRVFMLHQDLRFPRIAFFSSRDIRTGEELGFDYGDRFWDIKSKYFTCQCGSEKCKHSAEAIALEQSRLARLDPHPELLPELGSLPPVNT

Key:
[1] = target: T1, T7-ORCA (full-length) (human) (UniProt Q9UFC0); test: co-IP; co-IP after Benzonase treatment of the lysate (1000 U, 20 min RT); data not shown
T1 sequence: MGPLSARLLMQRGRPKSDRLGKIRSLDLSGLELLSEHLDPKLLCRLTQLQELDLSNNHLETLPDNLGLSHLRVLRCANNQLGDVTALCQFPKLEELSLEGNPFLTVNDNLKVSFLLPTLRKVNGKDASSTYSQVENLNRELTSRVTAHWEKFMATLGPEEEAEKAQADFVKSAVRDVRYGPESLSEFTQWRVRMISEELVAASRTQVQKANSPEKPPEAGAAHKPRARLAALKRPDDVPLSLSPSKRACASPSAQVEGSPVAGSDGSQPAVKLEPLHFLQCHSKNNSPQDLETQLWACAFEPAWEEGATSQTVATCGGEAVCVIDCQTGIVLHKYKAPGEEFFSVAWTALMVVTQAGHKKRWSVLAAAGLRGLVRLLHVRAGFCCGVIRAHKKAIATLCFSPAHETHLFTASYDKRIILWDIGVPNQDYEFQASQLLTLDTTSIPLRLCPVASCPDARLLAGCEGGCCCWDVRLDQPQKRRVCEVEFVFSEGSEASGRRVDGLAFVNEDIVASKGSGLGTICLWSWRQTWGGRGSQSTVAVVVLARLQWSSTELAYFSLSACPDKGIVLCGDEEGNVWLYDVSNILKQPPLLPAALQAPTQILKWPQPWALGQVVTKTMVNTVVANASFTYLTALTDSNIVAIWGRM

[2] = target: T2, T7-ORCA (128–647) (human) (UniProt Q9UFC0); test: co-IP; transient co-transfection in U2OS; IP buffer 50 mM Tris pH 7.4, 150 mM NaCl, 10% glycerol, 0.1% NP-40, 1 mM DTT; antibody-conjugated agarose (ORCA, T7 or HA antibody) overnight; immunoblot; for G9a-Suv39H1 also in control and ORCA siRNA cells
T2 sequence: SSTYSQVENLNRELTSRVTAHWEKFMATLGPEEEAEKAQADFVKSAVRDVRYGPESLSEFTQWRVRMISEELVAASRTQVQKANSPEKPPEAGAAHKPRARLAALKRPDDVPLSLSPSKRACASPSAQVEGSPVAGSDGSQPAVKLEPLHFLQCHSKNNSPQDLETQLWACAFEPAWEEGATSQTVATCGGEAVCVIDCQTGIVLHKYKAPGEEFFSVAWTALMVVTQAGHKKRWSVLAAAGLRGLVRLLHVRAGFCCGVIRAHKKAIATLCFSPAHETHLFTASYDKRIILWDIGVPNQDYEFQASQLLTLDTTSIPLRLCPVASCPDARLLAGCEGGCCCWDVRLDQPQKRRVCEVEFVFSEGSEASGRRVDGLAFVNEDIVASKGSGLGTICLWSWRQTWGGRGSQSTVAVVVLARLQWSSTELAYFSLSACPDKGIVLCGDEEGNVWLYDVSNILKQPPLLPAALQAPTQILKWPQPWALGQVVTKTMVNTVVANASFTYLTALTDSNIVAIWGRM

[3] = target: T3, T7-ORCA (1–127) (human) (UniProt Q9UFC0); test: as above
T3 sequence: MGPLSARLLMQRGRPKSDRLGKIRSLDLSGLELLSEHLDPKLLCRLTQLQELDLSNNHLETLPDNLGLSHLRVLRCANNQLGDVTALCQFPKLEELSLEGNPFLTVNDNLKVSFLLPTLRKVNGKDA

[4] = target: T1, T7-ORCA (full-length) (human); test: co-IP; T7 antibody IP from co-transfected cells in the presence of ethidium bromide (50 μg/ml in lysate, 80 μg/ml in washes)
[5] = target: T1, T7-ORCA (full-length) (human); test: co-IP; sequential IP from triply transfected U2OS: HA IP, HA peptide elution, then T7 antibody IP; immunoblot
[6] = target: T4, HA-ORC1 (UniProt Q13415); test: as above
T4 sequence: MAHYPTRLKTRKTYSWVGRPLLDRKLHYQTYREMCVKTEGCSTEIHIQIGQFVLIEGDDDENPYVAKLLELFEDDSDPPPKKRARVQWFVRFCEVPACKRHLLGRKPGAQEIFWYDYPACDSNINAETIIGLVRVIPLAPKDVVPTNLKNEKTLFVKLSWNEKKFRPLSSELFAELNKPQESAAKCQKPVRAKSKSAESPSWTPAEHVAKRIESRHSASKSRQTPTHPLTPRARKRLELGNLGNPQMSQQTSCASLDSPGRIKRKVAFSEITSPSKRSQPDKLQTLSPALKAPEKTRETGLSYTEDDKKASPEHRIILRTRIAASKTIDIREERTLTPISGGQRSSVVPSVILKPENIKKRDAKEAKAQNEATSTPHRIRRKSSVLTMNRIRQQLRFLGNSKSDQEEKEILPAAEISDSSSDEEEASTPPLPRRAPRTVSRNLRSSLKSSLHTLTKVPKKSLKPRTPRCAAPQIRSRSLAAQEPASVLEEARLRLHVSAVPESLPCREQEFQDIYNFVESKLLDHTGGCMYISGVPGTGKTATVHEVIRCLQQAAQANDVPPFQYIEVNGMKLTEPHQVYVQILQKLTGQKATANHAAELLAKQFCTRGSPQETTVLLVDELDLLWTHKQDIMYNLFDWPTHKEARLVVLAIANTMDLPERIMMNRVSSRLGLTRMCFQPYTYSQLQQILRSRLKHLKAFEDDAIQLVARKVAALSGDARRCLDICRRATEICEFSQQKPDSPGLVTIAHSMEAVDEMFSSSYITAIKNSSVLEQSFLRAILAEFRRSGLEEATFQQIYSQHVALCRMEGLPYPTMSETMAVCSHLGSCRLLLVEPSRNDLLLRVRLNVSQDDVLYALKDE

Measured: binding

Flag-G9a (from UniProt Q96KQ7 1-1210) (enzyme)
binds: [1] | [2] | [3] | [4] | [5] | [6]
